PubChem BioAssay AID602196 | INSERM | 2012
The whole screen tested about 23,000 reagents; shown is a part drawn at random. 455 of them (2%) were called active. 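Active includes both protection and sensitisation; some change values fall well beyond the stated -50 to +50 range.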 Further read-outs or replicates are left out here. No sequences are given here. Not stated in the record: the amount of reagent.

Assay: 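Modifiers of cisplatin sensitivity in A549 cells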
System: human A549 lung cancer cells
Reagents: siRNA pair against human genes
Time to read-out: 48 h transfection before cisplatin; time from cisplatin to read-out not stated
Conditions: cisplatin at a dose killing half of control-siRNA cells; exact dose and duration not given
Measurement: 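Cisplatin cell death as a shift from the 50% death seen with control siRNA; siRNAs toxic or growth-blocking alone scored 0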
Reading the numbers: two-siRNA summed score (-2 to +2): higher = both siRNAs protect from cisplatin killing; -2 means both sensitise; mean protection from cisplatin (shift in death): higher = protection from cisplatin killing
Call rule: 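Each siRNA scores 0 if harmful alone by LDH or WST-1, otherwise +1 if it reduces and -1 if it increases cisplatin killing; a gene is active when both siRNAs agree (sum +2 or -2)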
Meaning of the calls: active = both siRNAs shift cisplatin killing the same way; inactive = no consistent shift, or siRNA harmful alone

For SPC25 (SPC25 component of NDC80 kinetochore complex) [SID131502824], what was measured?
two-siRNA summed score (-2 to +2): 0; mean protection from cisplatin (shift in death) (%): -27.1; Call: inactive

What did the screen give for KLHL24 (kelch like family member 24) [SID131512052]?
two-siRNA summed score (-2 to +2): 0; mean protection from cisplatin (shift in death) (%): 5.1; Call: inactive

For NT5C3A (5'-nucleotidase, cytosolic IIIA) [SID131511657], how do the results read?
two-siRNA summed score (-2 to +2): 0; mean protection from cisplatin (shift in death) (%): 4.6; Call: inactive

With SLC26A5 [SID131516866], how do the results read?
two-siRNA summed score (-2 to +2): 0; mean protection from cisplatin (shift in death) (%): 11.8; Call: inactive

For LOC338809 [SID131515943], what does the deposit list?
two-siRNA summed score (-2 to +2): 0; mean protection from cisplatin (shift in death) (%): 9.9; Call: inactive

How did the screen score MAP1B (microtubule associated protein 1B) [SID131507869]?
two-siRNA summed score (-2 to +2): 0; mean protection from cisplatin (shift in death) (%): 0.4; Call: inactive

For CRB3 (crumbs cell polarity complex component 3) [SID131516415], how do the results read?
two-siRNA summed score (-2 to +2): 0; mean protection from cisplatin (shift in death) (%): 10.8; Call: inactive

What is on record for FBXO16 (F-box protein 16) [SID131516321]?
two-siRNA summed score (-2 to +2): 0; mean protection from cisplatin (shift in death) (%): 10.7; Call: inactive

Which result is listed for EPPIN (epididymal peptidase inhibitor) [SID131513034]?
two-siRNA summed score (-2 to +2): 0; mean protection from cisplatin (shift in death) (%): 6.1; Call: inactive

Which result is listed for AVP (arginine vasopressin) [SID131502572]?
two-siRNA summed score (-2 to +2): -1; mean protection from cisplatin (shift in death) (%): -0.6; Call: inactive

With HS6ST3 (heparan sulfate 6-O-sulfotransferase 3) [SID131511373], what was measured?
two-siRNA summed score (-2 to +2): 0; mean protection from cisplatin (shift in death) (%): 4.3; Call: inactive

For SDHD (succinate dehydrogenase complex subunit D) [SID131520070], how do the results read?
two-siRNA summed score (-2 to +2): 1; mean protection from cisplatin (shift in death) (%): 8.6; Call: inactive

How did the screen score CLDN14 (claudin 14) [SID131501655]?
two-siRNA summed score (-2 to +2): -1; mean protection from cisplatin (shift in death) (%): -8.3; Call: inactive

With ODF1 (outer dense fiber of sperm tails 1) [SID131521170], how do the results read?
two-siRNA summed score (-2 to +2): 1; mean protection from cisplatin (shift in death) (%): 12.4; Call: inactive

For WDR41 (WD repeat domain 41) [SID131509976], how do the results read?
two-siRNA summed score (-2 to +2): 0; mean protection from cisplatin (shift in death) (%): 2.7; Call: inactive

For LOC389339 [SID131519245], how do the results read?
two-siRNA summed score (-2 to +2): 1; mean protection from cisplatin (shift in death) (%): 4.1; Call: inactive

For HSPC047 [SID131513718], how do the results read?
two-siRNA summed score (-2 to +2): 0; mean protection from cisplatin (shift in death) (%): 6.9; Call: inactive

With LHX2 (LIM homeobox 2) [SID131509603], what was measured?
two-siRNA summed score (-2 to +2): 0; mean protection from cisplatin (shift in death) (%): 2.3; Call: inactive

For LOC286478 [SID131514595], what was measured?
two-siRNA summed score (-2 to +2): 0; mean protection from cisplatin (shift in death) (%): 8; Call: inactive

For NME5 (NME/NM23 family member 5) [SID131512673], how do the results read?
two-siRNA summed score (-2 to +2): 0; mean protection from cisplatin (shift in death) (%): 5.7; Call: inactive

What is on record for ERO1A (endoplasmic reticulum oxidoreductase 1 alpha) [SID131500833]?
two-siRNA summed score (-2 to +2): -1; mean protection from cisplatin (shift in death) (%): -15.5; Call: inactive

With OSBPL1A (oxysterol binding protein like 1A) [SID131519785], how do the results read?
two-siRNA summed score (-2 to +2): 1; mean protection from cisplatin (shift in death) (%): 7.4; Call: inactive

With NKAIN4 (sodium/potassium transporting ATPase interacting 4) [SID131508447], how do the results read?
two-siRNA summed score (-2 to +2): 0; mean protection from cisplatin (shift in death) (%): 1.1; Call: inactive

For LYPLA2P2 (LYPLA2 pseudogene 2) [SID131512371], how do the results read?
two-siRNA summed score (-2 to +2): 0; mean protection from cisplatin (shift in death) (%): 5.4; Call: inactive

How did the screen score CTSA (cathepsin A) [SID131513186]?
two-siRNA summed score (-2 to +2): 0; mean protection from cisplatin (shift in death) (%): 6.3; Call: inactive

For LOC151256 [SID131512575], what does the deposit list?
two-siRNA summed score (-2 to +2): 0; mean protection from cisplatin (shift in death) (%): 5.6; Call: inactive

For OR14C36 (olfactory receptor family 14 subfamily C member 36) [SID131509827], how do the results read?
two-siRNA summed score (-2 to +2): 0; mean protection from cisplatin (shift in death) (%): 2.6; Call: inactive

What is on record for AADACL2 (arylacetamide deacetylase like 2) [SID131521118]?
two-siRNA summed score (-2 to +2): 1; mean protection from cisplatin (shift in death) (%): 12.3; Call: inactive

With ORMDL3 (ORMDL sphingolipid biosynthesis regulator 3) [SID131511049], how do the results read?
two-siRNA summed score (-2 to +2): 0; mean protection from cisplatin (shift in death) (%): 3.9; Call: inactive

With KIAA1935 [SID131518155], what was measured?
two-siRNA summed score (-2 to +2): 0; mean protection from cisplatin (shift in death) (%): 16.9; Call: inactive

With HS2ST1 (heparan sulfate 2-O-sulfotransferase 1) [SID131512985], how do the results read?
two-siRNA summed score (-2 to +2): 0; mean protection from cisplatin (shift in death) (%): 6.1; Call: inactive

Sorted by “mean protection from cisplatin (shift in death) (%)” (low to high): some entries from above
AVP (arginine vasopressin) [SID131502572]: two-siRNA summed score (-2 to +2) = -1; mean protection from cisplatin (shift in death) (%) = -0.6; Call = inactive
HS6ST3 (heparan sulfate 6-O-sulfotransferase 3) [SID131511373]: two-siRNA summed score (-2 to +2) = 0; mean protection from cisplatin (shift in death) (%) = 4.3; Call = inactive
SDHD (succinate dehydrogenase complex subunit D) [SID131520070]: two-siRNA summed score (-2 to +2) = 1; mean protection from cisplatin (shift in death) (%) = 8.6; Call = inactive
